# The other results are listed elsewhere or left out. For some assays here: Construct or isoform of the protein are uncertain.
# Chains of the proteins cited; added tags and fusions are not shown. Lines headed by an entry give the natural chain unless they say otherwise; changes in a name come on top.
# UniProt Q9BUP3: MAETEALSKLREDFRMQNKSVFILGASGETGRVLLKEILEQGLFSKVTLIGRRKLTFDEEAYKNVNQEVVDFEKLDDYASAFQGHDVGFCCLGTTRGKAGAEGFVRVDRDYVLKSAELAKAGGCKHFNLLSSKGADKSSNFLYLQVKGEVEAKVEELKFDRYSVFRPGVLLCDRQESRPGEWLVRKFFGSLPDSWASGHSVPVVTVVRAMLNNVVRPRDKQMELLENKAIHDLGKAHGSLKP
# Columns and labels:
# Test in all cases: protein microarray (ProtoArray v5.0), streptavidin-Alexa Fluor 647
# Conditions in all cases: 3'-biotin; 20 mM Tris (pH 7.5), 5 mM MgCl2, 100 mM KCl, 0.1% Tween-20, A/T-rich and random oligonucleotide blockers; temperature not stated; high values mean tight binding
# HSPBAP1 (human) = system: HSPBAP1 (human)
# HSPBP1 (human) = system: HSPBP1 (human)
# HSPC111 (human) = system: HSPC111 (human)
# HSPC142 (human) = system: HSPC142 (human)
# HTATIP2 = HTATIP2 (UniProt Q9BUP3)
# HYPK (human) = system: HYPK (human)
# [1] = system: Hemoglobin subunit mu (human)
# [2] = system: Hexaprenyldihydroxybenzoate methyltransferase, mitochondrial (human)
# Hexokinase-3 (human) = system: Hexokinase-3 (human)
# [3] = system: High affinity cAMP-specific and IBMX-insensitive 3prime,5prime-cyclic phosphodiesterase 8A (human)
# [4] = system: Histone H2B type 1-D (human)
# [5] = system: Histone H2B type 1-H (human)
# [6] = system: Histone deacetylase 10 (human)
# [7] = system: Homeobox protein BarH-like 1 (human)
# [8] = system: Homeobox protein Hox-B6 (human)
# [9] = system: Hsp90 co-chaperone Cdc37-like 1 (human)
# [10] = system: Huntingtin-interacting protein M (human)
# [11] = system: Hydroxysteroid dehydrogenase-like protein 1 (human)
# ICEBERG (human) = system: ICEBERG (human)
# IDH3B (human) = system: IDH3B (human)
sequence,measurement,setting,value
GGTGACAGGGGTATGGGGAGGGG [G4-2 biotinylated (Ct1)],binding signal,HSPBAP1 (human),-0.367 z-score
same,binding signal,HSPBP1 (human),-0.398 z-score
same,binding signal,HSPC111 (human),6.78 z-score
same,binding signal,HSPC142 (human),-0.396 z-score
same,binding signal,HTATIP2,-0.387 z-score
same,binding signal,HYPK (human),-0.385 z-score
same,binding signal,[1],-0.396 z-score
same,binding signal,[2],-0.399 z-score
same,binding signal,Hexokinase-3 (human),-0.385 z-score
same,binding signal,[3],-0.383 z-score
same,binding signal,[4],3.36 z-score
same,binding signal,[5],3.61 z-score
same,binding signal,[6],-0.379 z-score
same,binding signal,[7],3.17 z-score
same,binding signal,[8],-0.398 z-score
same,binding signal,[9],-0.397 z-score
same,binding signal,[10],-0.386 z-score
same,binding signal,[11],-0.372 z-score
same,binding signal,ICEBERG (human),-0.38 z-score
same,binding signal,IDH3B (human),-0.376 z-score

# Part of the list above, as tab-separated lines.
sequence	measurement	setting	value
GGTGACAGGGGTATGGGGAGGGG [G4-2 biotinylated (Ct1)]	binding signal	HSPC111 (human)	6.78 z-score
same	binding signal	HSPC142 (human)	-0.396 z-score

# — article PMC5996148
